The values below come from article PMC9961694.

Experiment in all cases: two-hybrid; ORFs in prey vector pGADT7 (AD, yeast Y187) or bait vector pGBKT7 (BD, yeast Y2HGold), pairwise mating; diploids spotted (5 x 10^2, 5 x 10^3, 5 x 10^4 cells) on quadruple-dropout SDM/-Leu/-Trp/-Ade/-His/X-α-Gal/AbA, 3 days at 30 °C
One test has as its target T1, Phr2 (B. bassiana) (UniProt J4WK53).
T1 sequence: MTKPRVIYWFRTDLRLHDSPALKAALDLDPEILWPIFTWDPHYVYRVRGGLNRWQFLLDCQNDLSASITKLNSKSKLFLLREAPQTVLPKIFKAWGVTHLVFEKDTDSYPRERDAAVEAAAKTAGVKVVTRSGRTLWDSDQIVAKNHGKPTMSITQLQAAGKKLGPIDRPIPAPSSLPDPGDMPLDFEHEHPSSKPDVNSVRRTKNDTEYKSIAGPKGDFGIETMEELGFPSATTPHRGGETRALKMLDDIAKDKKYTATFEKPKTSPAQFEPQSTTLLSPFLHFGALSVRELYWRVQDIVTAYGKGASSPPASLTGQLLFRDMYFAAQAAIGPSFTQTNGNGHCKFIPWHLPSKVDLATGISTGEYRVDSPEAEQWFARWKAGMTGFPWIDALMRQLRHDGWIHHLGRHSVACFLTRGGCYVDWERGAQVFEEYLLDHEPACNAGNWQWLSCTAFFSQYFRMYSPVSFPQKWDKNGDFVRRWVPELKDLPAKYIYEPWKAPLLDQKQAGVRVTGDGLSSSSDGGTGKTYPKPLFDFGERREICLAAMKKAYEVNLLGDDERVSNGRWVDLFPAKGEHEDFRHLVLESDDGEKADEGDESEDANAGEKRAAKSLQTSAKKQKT

A further test concerns the target T2, WC2 (B. bassiana) (UniProt J5JYA0).
T2 sequence: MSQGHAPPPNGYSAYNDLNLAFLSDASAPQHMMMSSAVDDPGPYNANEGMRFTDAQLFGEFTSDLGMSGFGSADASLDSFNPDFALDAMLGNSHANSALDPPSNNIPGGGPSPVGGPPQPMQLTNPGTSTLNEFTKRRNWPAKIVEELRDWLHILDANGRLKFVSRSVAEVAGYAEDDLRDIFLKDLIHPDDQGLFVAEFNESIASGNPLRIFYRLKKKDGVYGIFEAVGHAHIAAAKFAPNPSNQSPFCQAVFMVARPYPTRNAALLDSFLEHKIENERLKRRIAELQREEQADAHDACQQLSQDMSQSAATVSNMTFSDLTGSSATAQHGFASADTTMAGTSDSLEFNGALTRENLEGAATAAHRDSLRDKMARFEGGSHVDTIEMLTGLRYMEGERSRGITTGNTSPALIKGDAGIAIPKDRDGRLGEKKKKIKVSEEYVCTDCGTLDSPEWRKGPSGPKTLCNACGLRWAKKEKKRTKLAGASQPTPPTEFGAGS

Another test addresses T3, WC1 (B. bassiana) (UniProt J5J1K4).
T3 sequence: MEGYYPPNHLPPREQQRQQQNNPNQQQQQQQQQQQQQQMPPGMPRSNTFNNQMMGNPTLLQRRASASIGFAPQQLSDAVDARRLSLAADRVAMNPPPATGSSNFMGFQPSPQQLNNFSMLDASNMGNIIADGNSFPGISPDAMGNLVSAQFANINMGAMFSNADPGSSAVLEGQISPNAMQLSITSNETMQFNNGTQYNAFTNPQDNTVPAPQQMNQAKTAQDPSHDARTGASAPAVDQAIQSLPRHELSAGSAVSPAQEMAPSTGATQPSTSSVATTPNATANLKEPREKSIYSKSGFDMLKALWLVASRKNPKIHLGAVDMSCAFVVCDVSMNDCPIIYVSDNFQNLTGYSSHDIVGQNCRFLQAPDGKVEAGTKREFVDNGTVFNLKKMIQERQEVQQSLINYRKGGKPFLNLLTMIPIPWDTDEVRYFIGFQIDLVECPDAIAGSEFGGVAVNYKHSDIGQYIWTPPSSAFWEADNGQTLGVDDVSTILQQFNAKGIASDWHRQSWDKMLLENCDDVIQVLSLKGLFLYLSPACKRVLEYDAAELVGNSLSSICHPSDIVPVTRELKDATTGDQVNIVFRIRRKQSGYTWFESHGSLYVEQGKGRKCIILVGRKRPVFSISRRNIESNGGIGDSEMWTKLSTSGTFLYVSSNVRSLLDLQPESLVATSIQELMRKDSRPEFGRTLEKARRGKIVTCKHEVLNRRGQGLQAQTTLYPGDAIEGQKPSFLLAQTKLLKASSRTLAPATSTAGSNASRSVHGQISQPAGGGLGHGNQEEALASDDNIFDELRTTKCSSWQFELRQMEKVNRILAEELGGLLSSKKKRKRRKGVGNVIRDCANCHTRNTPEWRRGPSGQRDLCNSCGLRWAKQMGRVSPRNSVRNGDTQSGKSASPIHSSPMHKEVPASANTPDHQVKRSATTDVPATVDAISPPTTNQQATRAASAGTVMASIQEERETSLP

For another test, the target named is Rad4B (B. bassiana) (UniProt J4URE3).
The next test addresses T4, Phr1 (B. bassiana) (UniProt J4KQS2).
T4 sequence: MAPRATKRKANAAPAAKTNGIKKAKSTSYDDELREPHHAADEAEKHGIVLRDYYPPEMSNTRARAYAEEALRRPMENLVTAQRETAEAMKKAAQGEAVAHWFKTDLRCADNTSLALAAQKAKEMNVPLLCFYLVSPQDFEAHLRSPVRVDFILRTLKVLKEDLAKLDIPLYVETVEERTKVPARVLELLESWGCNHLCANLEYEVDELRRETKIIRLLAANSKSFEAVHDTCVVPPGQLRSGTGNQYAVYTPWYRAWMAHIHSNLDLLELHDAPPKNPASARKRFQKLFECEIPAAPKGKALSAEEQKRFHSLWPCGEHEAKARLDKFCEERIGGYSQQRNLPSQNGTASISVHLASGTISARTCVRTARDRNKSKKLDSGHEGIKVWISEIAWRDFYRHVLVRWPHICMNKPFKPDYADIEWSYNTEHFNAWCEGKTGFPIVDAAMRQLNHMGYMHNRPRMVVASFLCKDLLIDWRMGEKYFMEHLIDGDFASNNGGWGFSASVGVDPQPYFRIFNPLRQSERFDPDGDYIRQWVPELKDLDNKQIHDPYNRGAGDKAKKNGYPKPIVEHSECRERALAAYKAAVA

The target in a further test is Rad23 (B. bassiana) (UniProt J5K7R4).

No constants are given. Whether binding was seen depends on the method and setting. For some of these results: Binding can be weak; no strength is given.

On to Rad4A (from UniProt J5JSN3), for which the binding entry with Phr2 (B. bassiana) is recorded as “no binding”; with WC2 (B. bassiana), “no binding”; in the test with WC1 (B. bassiana) it was “no binding”; in the test with Rad4B (B. bassiana), “no binding”; with Phr1 (B. bassiana), “no binding”; in the test with Rad23 (B. bassiana), “binds”.
Rad4B (from UniProt J4URE3): the binding entry with Phr2 (B. bassiana) is on record as “no binding”; with WC2 (B. bassiana), “no binding”; with WC1 (B. bassiana), “no binding”; in the test with Phr1 (B. bassiana) it was “no binding”; with Rad23 (B. bassiana), “binds”.
For the substance Rad23 (from UniProt J5K7R4), the binding result is listed as “binds” with WC2 (B. bassiana) and “no binding” with WC1 (B. bassiana).
